Test results published in PMC7256200, “Identifying a Molecular Mechanism That Imparts Species-Specific Toxicity to YoeB Toxins” (Frontiers in Microbiology, 2020).

Target: His-dihydrofolate reductase
Assay: BLI; both purified

B1: AtYoeB toxin (Atu2017) from Agrobacterium tumefaciens, GST-His tag removed (natural protein)
chain: MKLVWTLSSWDDYEFWQRTDARMVEKINDLIRNAKRTPFAGLGKPEPLKGDMAGYWSRRITAEHRFVYRVSGSGSEQRLEVIQCRFHYQ
notes: source: E. coli BL21 (DE3), purified (NiNTA, HRV3c PreScission cleavage, Superdex 75); not shown: GST, C-terminal, cleaved
- binding: no binding

These are yes or no findings as the source states them, for the method shown. Where a sequence is shown, tags or fusion partners need not be part of it.
